According to patent US11007243B2, “Enzyme-assisted supercritical extraction of nigella sativa seeds” (priority 2016, dated 2021):

Assays:
[1] = system: IMR-32 cell line; assay: SRB growth assay on IMR-32 neuronal cell line; type: cell-based, human; details: IMR32, SRB assay, tested at 10-80 μg/ml; FIG. 8
[2] = system: U373-MG cell line; assay: SRB growth assay on U373 MG glial cell line; type: cell-based, human; details: U373MG, tested at 10-80 μg/ml, FIG. 9

COc1cc2c(cc1OC)C(=O)C(CC1CCN(Cc3ccccc3)CC1)C2 (centres unmarked) [Donepezil]
GI 50 (concentration causing 50% inhibition of cell growth) [1]: no activity | GI 50 (concentration causing 50% inhibition of cell growth) [2]: have not produced any significant activity
